## Assay results

Source: PubChem BioAssay AID1159506 (NCATS, 2015).

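Genome-wide siRNA knockdown in TC32 Ewing sarcoma cells, comparing luciferase light from an NR0B1-promoter reporter with a CMV-promoter reporter 48 hours after transfection. Each siRNA was applied at 20 nM. A z-score of the log NR0B1-over-CMV signal, less the median of siRNAs with the same seed; more negative means a stronger specific loss of the NR0B1 reporter.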

The strongest results of the screen are mostly left out here. Sequences are the guide (antisense) strand, without overhang.

Sequence	gene	seed-corrected z-score
AUCUGUACGCUUUCUCUCC	LOC400682	-0.7179
AACUUGCCGGUGAACAUGU	C1QTNF1	-0.0194
AUAGAUGACACUUUCCUGC	TMEM55B	0.02962
UGAUCUUCAAGAGCACAGC	BAG2	1.137
UCUCUUAUAGAGCCGCUGC	FAM98A	0.3146
UAUCAAAUCCAUCUACUUC	LOC728975	-0.6439
UGUUUAUGGAGAUUCACUG	ZNF382	-0.9281
AGGUCUUUUAUAAUUGAUG	THEM4	-0.4981
UUAGCGGCAGCACUAUUCC	IREB2	-0.8145
ACAGCGAAUACAGGUGACC	ZNRD1	0.1567
UGAUUGAACAUAAGCUUCC	COG5	0.2923
UAGCCGGAAAAAUGGGUGC	PKN2	0.08253
AAAUUGAUCAAAGGGUUCC	ADAMTS7	0.4964
UCCUCUGCAACUCCGUGUC	RTKN	-0.8004
UCGUGUUCCACCGAGGAAG	SCLY	0.01637
UCUGUAUAUGGUCCCAUCC	AMMECR1	-0.2596
UAGGUUGCUAAGAAAGAAG	OR8U1	-1.797
UGCAGGAUAAGGAAGAGGG	PITPNM1	0.7412
UCUGAUCUGAAUGACGACG	FAM175A	0.1972
UGAAUCUCCUGGUCCUUGG	HOMER3	-0.01788
UACUCGAAGAGUGGUAAGG	USP33	-0.08067
UUUAGACUUCGCACGUUCC	ACIN1	0.2796
UAUUUGAUCACCGCAAUAC	ZNF589	-0.8935
UAGAUGAUUAGUAGCAUGA	AVPI1	1.226
UGUCUGUUCCUUGUCGUAG	CA4	-0.4824
UAACGAGUUAAAUGCAUUG	SLC25A12	-0.8666
AACCGGACGAUGACUUUGG	RPS15A	0.325
UUACUUCUGUAAAUUUUCC	ZNF610	-1.309
UCUAUAUCGUCGCUAAUUC	IMPACT	-0.9042
AAGAGUACCAGAAGAUCUG	DEPDC7	0.6931
UGUUAGUCUUGCAUUAUCA	KRT27	0.4699
AGAGGGUACCGGUAGAACC	SPATA25	-0.2641
UGAUCGAUAUCGUUCAUCC	DIP2B	-0.04627
UCAUCAUCCACGUACACGG	ADGRL1	-1.307
UUUGUAUAGAGCGUAGGAG	TRPM8	-0.2273
AUCAGUUAAAUUUUAUUGG	MYLPF	0.4568
UCAAGUUUCCCUUUGAUUG	TPT1	0.1395
UUUAUUCUGCGUUUGACUC	SET	-0.7009
AUCAGUUCCAGUAACAAUG	KPNA4	0.2028
UCACUCGGAAAAUCUGUGC	HLA-E	0.0895
UAUUGUCGAACAUGAACUG	CCNYL2	-0.9281
UUCGGUUCAUUUCAGAAGC	DDHD2	0.4272
UUGAUUUCAUAUUCCAGCC	SKA2	-1.017
UUGGUUCAGACAGGACACG	ESCO2	-0.7173
UCCUUCUUCACAUAGAACA	KCNK1	-0.0854
UUUGAUAGAAGUUGGGUAG	POPDC3	-0.3369
AAAUAUUCCAGUCCUUGUC	CSF1	0.9659
AAUAAUCCUCCUAAUAACC	SOCS2-AS1	-1.517
UUACAUAUUCUUCUGUCUG	LSM6	-0.1185
UUCUGGGCAUGCUCCAUUU	FTHL17	0.01863
UUAAUAAGUUCUGUCACCU	GTF2A2	0.8505
AAACCAUAUCCUAUUAUCC	BRIX1	-0.3757
UGUCAUCAAAUGGAUUAGC	PYGO1	0.6355
UACACGUUUUCUCCAGUGG	TIAM2	-0.5233
AAAGUGGAAGCUUUGAUAG	NMUR2	0.2994
UAUAGUGCAGGGUGUAGCG	TRAP1	-0.09885
UCCUUUACCCAAUCUAAUC	APEX1	-0.2793
UCUUAGAUUUGGAAUCACC	KIAA1429	0.298
UGAUCCAAGACUCUAAUGC	KLHL28	-0.1287
AGAGUUGAGACAAGCAUGU	ZNF575	-0.5174
UGUUGUUCCUGUCAUACCC	UMODL1	0.8582
UUCCUGGGUAUCAAAGUCC	IK	0.6053
UAAGUCACUGGGCACUUCC	SLPI	0.3139
AGCUUGAUCACAUAUGUGU	LIN37	-0.09404

The first 5 entries again:

AUCUGUACGCUUUCUCUCC against LOC400682 gave seed-corrected z-score -0.7179.
AACUUGCCGGUGAACAUGU against C1QTNF1 gave seed-corrected z-score -0.0194.
AUAGAUGACACUUUCCUGC against TMEM55B gave seed-corrected z-score 0.02962.
UGAUCUUCAAGAGCACAGC against BAG2 gave seed-corrected z-score 1.137.
UCUCUUAUAGAGCCGCUGC against FAM98A gave seed-corrected z-score 0.3146.